Results taken from publication PMC6831621, “Structural Insight Into Chitin Degradation and Thermostability of a Novel Endochitinase From the Glycoside Hydrolase Family 18” (Frontiers in Microbiology, 2019).
No constants are given. Whether binding was seen depends on the method and setting.

Target: Chi23, GH18 endochitinase from Pseudoalteromonas aurantia DSM6057 (Pseudoalteromonas aurantia DSM6057)
Test: SEC; gel filtration of recombinant Chi23 beside the size markers carbonic anhydrase (29 kDa) and ovalbumin (44 kDa); calculated monomer mass 30.4 kDa; both purified

binding: no binding
B1: Chi23, GH18 endochitinase from Pseudoalteromonas aurantia DSM6057 (enzyme, UniProt A0A650AJ72 1-280)
chain: MSKTITYYNSGAVPLINASELPYDVVNLAFLSSSSNNPFNLVLSGAIAATESSFTTNTIEAIKVMQHKGQKVLISFGGGTMGSNAYRSLSEDTAKLADSLASFVKNNQLDGVDIDYEDTAAFTGQAGYDGAQFLISLTQELRKRLPSPDYIISHAPQPPYLEQGGYMAGYVEVVELVGQEIDWLNVQFYNNPPWSANPDQIVSSYLNYTKLPNMSPEKVIAGFPVTQNDAGSGYMPVQTIINEVIKPIQQQSSLGGIMNWQFSSDHNGDWIKAIAQSLNS
